Source: article doi:10.1101/2023.03.17.532992
No constants are given. Whether binding was seen depends on the method and setting.

What was measured:
[1] = biological target: T1, BCL7A, full length human (isoform Q4VC05-2, 231 amino acids) (human), Q4VC05; assay: SEC-MALS; details: remark: other sources report otherwise
T1 chain: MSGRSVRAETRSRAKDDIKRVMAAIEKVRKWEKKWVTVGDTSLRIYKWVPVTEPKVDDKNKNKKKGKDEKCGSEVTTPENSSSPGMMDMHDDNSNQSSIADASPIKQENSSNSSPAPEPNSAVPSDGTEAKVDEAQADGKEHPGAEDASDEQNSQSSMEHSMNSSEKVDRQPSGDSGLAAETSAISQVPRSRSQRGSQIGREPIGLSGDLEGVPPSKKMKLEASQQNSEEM

[2] = biological target: T1, BCL7A, full length human (isoform …); assay: AUC; details: remark: other sources report otherwise

B1: BCL7A, full length human (isoform Q4VC05-2, 231 amino acids), Q4VC05-2 1-231 (protein)
chain: MSGRSVRAETRSRAKDDIKRVMAAIEKVRKWEKKWVTVGDTSLRIYKWVPVTEPKVDDKNKNKKKGKDEKCGSEVTTPENSSSPGMMDMHDDNSNQSSIADASPIKQENSSNSSPAPEPNSAVPSDGTEAKVDEAQADGKEHPGAEDASDEQNSQSSMEHSMNSSEKVDRQPSGDSGLAAETSAISQVPRSRSQRGSQIGREPIGLSGDLEGVPPSKKMKLEASQQNSEEM
[1]
  binding: no binding
[2]
  binding: no binding
